According to US20180112192A1:
These are yes or no findings as the source states them, for the method shown. In cells and extracts the contact can be indirect. Some entries that bind do so weakly or less than the wild type.

Sequences of proteins named here, by UniProt entry; tags and fusion partners are left off. A change or cut given only in a name is not applied to a line headed by its entry.
UniProt Q9BXM7: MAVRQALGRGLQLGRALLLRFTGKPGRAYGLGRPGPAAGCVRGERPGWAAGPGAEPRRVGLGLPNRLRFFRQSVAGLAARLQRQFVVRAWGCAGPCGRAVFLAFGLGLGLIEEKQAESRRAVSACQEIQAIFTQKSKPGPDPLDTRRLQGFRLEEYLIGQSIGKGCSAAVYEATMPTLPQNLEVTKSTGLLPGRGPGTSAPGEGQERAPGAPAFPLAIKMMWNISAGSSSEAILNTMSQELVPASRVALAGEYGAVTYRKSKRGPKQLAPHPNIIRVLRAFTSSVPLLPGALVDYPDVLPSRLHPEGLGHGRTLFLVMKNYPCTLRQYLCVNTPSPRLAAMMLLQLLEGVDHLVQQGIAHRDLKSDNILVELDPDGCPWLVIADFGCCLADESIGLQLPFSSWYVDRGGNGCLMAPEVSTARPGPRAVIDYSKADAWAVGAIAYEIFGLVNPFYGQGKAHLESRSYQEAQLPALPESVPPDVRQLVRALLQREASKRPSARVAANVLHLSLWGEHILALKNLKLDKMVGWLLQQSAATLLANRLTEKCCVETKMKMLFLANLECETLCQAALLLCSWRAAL

Key:
[1] = molecular target: EGFR, wild-type (endogenous, CL1-5 cells) (UniProt P00533); experiment: co-immunoprecipitation of endogenous proteins, CL1-5 cells (FIG. 1B)
[2] = molecular target: EGFR L858R+T790M mutant (endogenous, H1975 cells) (UniProt P00533); experiment: co-immunoprecipitation of endogenous proteins (EGFR antibody IP, PINK1 blot), H1975 cell lysate
[3] = molecular target: EGFR, wild-type (endogenous, CL1-5 cells) (UniProt P00533); experiment: co-immunoprecipitation of endogenous proteins (EGFR antibody IP, PINK1 blot), CL1-5 cell lysate
[4] = molecular target: EGFR L858R mutant (endogenous, H3255 cells) (UniProt P00533); experiment: co-immunoprecipitation of endogenous proteins (EGFR antibody IP, PINK1 blot), H3255 cell lysate
[5] = molecular target: EGFR exon 19 deletion mutant (endogenous, PC9 cells) (UniProt P00533); experiment: co-immunoprecipitation of endogenous proteins, PC9 cells (FIG. 1B)
[6] = molecular target: EGFR L858R+T790M mutant (endogenous, H1975 cells) (UniProt P00533); experiment: co-immunoprecipitation of endogenous proteins, H1975 cells (FIG. 1B)
[7] = molecular target: EGFR L858R mutant (endogenous, H3255 cells) (UniProt P00533); experiment: co-immunoprecipitation of endogenous proteins, H3255 cells (FIG. 1B)
[8] = molecular target: EGFR exon 19 deletion mutant (endogenous, PC9 cells) (UniProt P00533); experiment: co-immunoprecipitation of endogenous proteins (EGFR antibody IP, PINK1 blot), PC9 cell lysate

Measured: binding

PTEN-induced putative kinase 1 (PINK1), full-length (from UniProt Q9BXM7 78-581) (enzyme)
binds: all assays above
